PubChem BioAssay AID504784, Drosophila RNAi Screening Center – 2011

- Aim: 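Search for regulators of lipid droplet storage in oleate-fed fly cells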 (primary screen)
- Cells: Drosophila Kc167 embryonic cells
- Reagent: long dsRNA against Drosophila genes, about 250 ng dsRNA per well
- Timing: 4 days
- Conditions: cells fed 400 µM oleic acid bound to BSA
- Measurement: 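Cells imaged and segmented; ratio of lipid droplet area to nuclear area, log-transformed, then normalised as a B-score over the screen; higher means more stored lipid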
- Scale: droplet/nuclear area B-score: higher = more stored lipid (overstorage)
The screen tested about 17,000 reagents; shown is an unselected part of those with a known target gene and a result. 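Each column is one replicate's B-score; the combined score over replicates was not deposited, so single values may mislead.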 Reagents against one gene are numbered here. A plus sign joins genes that one reagent is predicted to hit. Reagent sequences are not shown.

| gene | reagent no. | droplet/nuclear area B-score, replicate 1 | droplet/nuclear area B-score, replicate 2 | droplet/nuclear area B-score, replicate 3 |
| --- | --- | --- | --- | --- |
| CG11664 | 1 | 1.22 | 1.19 | – |
| stumps | 1 | 0.892 | 0.439 | – |
| stumps | 2 | -0.746 | -5.47 | – |
| Galphas | 1 | 1.22 | 0.651 | – |
| CG4627 | 1 | 0.216 | 0.859 | – |
| Xpd | 1 | -1.15 | 1.37 | – |
| S-Lap4 | 1 | -0.104 | 0.44 | – |
| CG3281 | 1 | 0.299 | -0.769 | – |
| CG10953 | 1 | -0.805 | -0.241 | – |
| by | 1 | 2.24 | 1.24 | – |
| Golgin97 | 1 | 1.14 | -0.517 | – |
| CG4553 | 1 | 1.86 | 1.14 | – |
| CG6724 | 1 | -0.0832 | 1.55 | – |
| CG15394 | 1 | 1.55 | -0.432 | – |
| CG14641 | 1 | -0.421 | -1.18 | 2.61 |
| CG5096 | 1 | -0.0259 | -3.93 | – |

Limited to “droplet/nuclear area B-score, replicate 2”, for 4 of the entries above:
stumps #1	0.439
stumps #2	-5.47
Galphas	0.651
CG4627	0.859

Additional results:
| gene | reagent no. | droplet/nuclear area B-score, replicate 1 | droplet/nuclear area B-score, replicate 2 | droplet/nuclear area B-score, replicate 3 |
| --- | --- | --- | --- | --- |
| CadN | 1 | -1.24 | 0.586 | – |
| CG10508 | 1 | -0.522 | -0.241 | -1.35 |
| CG10508 | 2 | -1.56 | 0.35 | – |
| Cyp4ac2 | 1 | -1.45 | 0.812 | – |
| CG6503 | 1 | 1.1 | -0.793 | – |
| dila | 1 | -2.24 | 0.0326 | – |
| CG16972 | 1 | -0.574 | -1.09 | – |
| chm | 1 | 1.33 | -0.0628 | – |
| gogo | 1 | 0.945 | 2.44 | – |
| gogo | 2 | 0.111 | -0.751 | – |
| CG12691 | 1 | 0.681 | 0.291 | – |
| LysD + LysB + LysC (retired record) | 1 | -0.205 | -1.09 | – |
| Acbp6 | 1 | 0.537 | 0.695 | – |
| Polr2I | 1 | 5.38 | 0.572 | – |
| dmGlut | 1 | -0.159 | -0.319 | – |
| Rab4 | 1 | 0.122 | -0.674 | – |
| CG33285 | 1 | 1.32 | -0.532 | – |
| CG10274 | 1 | 4.18 | – | – |
